Results: the supplement of paper PMC6078165

Test system: BT20
Test: relative JC-1 red fluorescence (viability) vs pre-drug, coculture with fibroblast (fraction); higher = more viable cancer cells
Conditions: 0.1 µM
Experimental: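 JC-1 labelled TNBC cells cocultured 1:1 (1,500 cells each) with CellTrace Violet stained primary or stromal fibroblasts in 384-well plates in FluoroBrite medium, treated with one of 42 anticancer drugs at 0.1, 1, 10 or 100 uM. JC-1 red fluorescence (mitochondrial integrity in cancer cells only) was read by plate reader every 8 h for 72 h. Values are normalised to each well's pre-drug value. The stock of one drug was tenfold lower, so its dose labels may be too high.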

COc1cc([C@@H]2c3cc4c(cc3[C@@H](O[C@@H]3O[C@@H]5CO[C@@H](c6cccs6)O[C@H]5[C@H](O)[C@H]3O)[C@H]3COC(=O)[C@H]23)OCO4)cc(OC)c1O [Teniposide]
relative JC-1 red fluorescence
Conditions	8 h	16 h	24 h	32 h	40 h
coculture fibroblast: C12385	0.866	0.852	0.851	0.806	0.761
coculture fibroblast: H6013	0.926	0.886	0.8486	0.801	0.757
coculture fibroblast: H6019	0.8606	0.8069	0.808	0.75	0.699
coculture fibroblast: H6076	0.944	0.903	0.877	0.878	0.875
coculture fibroblast: H6231	0.855	0.91	0.824	0.772	0.722
coculture fibroblast: HADF	0.97	0.88	0.7957	0.743	0.704
coculture fibroblast: HCFa	0.9236	0.904	0.8623	0.8	0.763
coculture fibroblast: HCPF	0.935	0.939	0.8816	0.84	0.804
coculture fibroblast: HHSteC	0.9269	0.875	0.854	0.782	–
coculture fibroblast: HMF	0.8888	0.884	0.7984	0.735	–
coculture fibroblast: HPFa	0.889	0.8698	0.889	0.8091	–
coculture fibroblast: HUF	0.8902	0.812	0.783	0.695	–
coculture fibroblast: Hs5	0.851	0.929	0.867	0.815	–
coculture fibroblast: Hs27A	0.842	0.97912	0.848	0.912	–
coculture fibroblast: Hs343T	0.827	0.899	0.8	0.747	–
coculture fibroblast: WS1	0.8544	0.803	0.797	0.738	–

Values are relative to the signal before dosing, not to a vehicle control; the signal also falls without drug.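 Labels refer to human fibroblasts, largely primary: uterine (C12385, HUF), lung (H6013), bone (Hs27A), adrenal (HADF), skin (WS1), plus mammary HMF and breast cancer-associated Hs343T. Cancer lines are basal-like or mesenchymal-like triple-negative breast cancer. The paper counts as hits responses shifting over 3x the replicate standard deviation. The tissue of the other fibroblasts is not given here.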
